{
  "source": "paper PMC10217904",
  "molecules": {"B1": {"name": "Arabidopsis prohibitin 3 (PHB3) in pGADT7 (AD, prey) (protein, UniProt O04331 1-277)", "chain": "MGSQQAAVSFLSNLAKAAFGLGTAATVLNTSLFTVDGGERAVIFDRFRGVMDQTVGEGTHFLIPILQRPHIFDIRTKPHTFSSISGTKDLQMVNLTLRVLSRPEVSRLPYIFQTLGLEYDEKVLPSIGNEVLKAVVAQFNADQLLTERPHVSALVRESLITRAKDFNIVLDDVAITHLSYGVEFSRAVEQKQVAQQEAERSKFVVMKADQERRAAVIRAEGESEAAQLISDATAKAGMGLIELRRIEASREIASTLARSPNVAYLPGGQSMLFALNR"}, "B2": {"name": "nLUC-PHB3 (protein, UniProt O04331 1-277)", "chain": "MGSQQAAVSFLSNLAKAAFGLGTAATVLNTSLFTVDGGERAVIFDRFRGVMDQTVGEGTHFLIPILQRPHIFDIRTKPHTFSSISGTKDLQMVNLTLRVLSRPEVSRLPYIFQTLGLEYDEKVLPSIGNEVLKAVVAQFNADQLLTERPHVSALVRESLITRAKDFNIVLDDVAITHLSYGVEFSRAVEQKQVAQQEAERSKFVVMKADQERRAAVIRAEGESEAAQLISDATAKAGMGLIELRRIEASREIASTLARSPNVAYLPGGQSMLFALNR"}},
  "key": {"[1]": {"molecular_target": "T1, Arabidopsis prohibitin 3 (PHB3) in pGBKT7 (BD, bait) (Arabidopsis) (UniProt O04331)", "T1 sequence": "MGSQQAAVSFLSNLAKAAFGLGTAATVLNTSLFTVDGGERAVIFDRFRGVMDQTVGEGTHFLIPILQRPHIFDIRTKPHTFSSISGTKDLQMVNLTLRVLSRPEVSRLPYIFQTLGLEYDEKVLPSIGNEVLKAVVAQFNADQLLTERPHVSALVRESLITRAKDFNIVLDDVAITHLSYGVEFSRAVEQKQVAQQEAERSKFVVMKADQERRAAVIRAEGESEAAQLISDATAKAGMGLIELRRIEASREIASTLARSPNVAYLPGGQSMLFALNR", "experiment": "two-hybrid; bait in pGBKT7 (BD), prey in pGADT7 (AD), cotransformed into yeast Y2H Gold; growth on DDO, QDO and QDO/X-α-Gal media"}, "[2]": {"molecular_target": "F1-ATPase subunit β (ATPβ) in pGBKT7 (BD, bait) (Arabidopsis)", "experiment": "two-hybrid; bait in pGBKT7 (BD), prey in pGADT7 (AD), cotransformed into yeast Y2H Gold; growth on DDO, QDO and QDO/X-α-Gal media"}, "[3]": {"molecular_target": "F1-ATPase subunit δ (ATPδ) in pGBKT7 (BD, bait) (Arabidopsis)", "experiment": "two-hybrid; bait in pGBKT7 (BD), prey in pGADT7 (AD), cotransformed into yeast Y2H Gold; growth on DDO, QDO and QDO/X-α-Gal media"}, "cLUC-ATPβ (Arabidopsis)": {"molecular_target": "cLUC-ATPβ (Arabidopsis)", "experiment": "split reporter; luciferase complementation imaging (LCI): nLUC and cLUC fusions co-infiltrated 1:1 into N. benthamiana leaves, imaged 48 h after infiltration with 1 mM luciferin"}, "cLUC-ATPδ (Arabidopsis)": {"molecular_target": "cLUC-ATPδ (Arabidopsis)", "experiment": "split reporter; luciferase complementation imaging (LCI): nLUC and cLUC fusions co-infiltrated 1:1 into N. benthamiana leaves, imaged 48 h after infiltration with 1 mM luciferin"}},
  "note": "These are yes or no findings as the source states them, for the method shown. For some assays here: Binding calls can cover weak binding; strength is not graded here. Sequences can lack the tags named with a protein. For some assays here: In cells and extracts the contact can be indirect.",
  "data": [
    {"molecule": "Fo-ATPase subunit a (ATPa) in pGADT7 (AD, prey) (Arabidopsis)", "values": [
      {"measurement": "binding", "setting": "[1]", "value": "no binding"}
    ]},
    {"molecule": "B1", "values": [
      {"measurement": "binding", "setting": "[2]", "value": "binds"},
      {"measurement": "binding", "setting": "[3]", "value": "binds"}
    ]},
    {"molecule": "B2", "values": [
      {"measurement": "binding", "setting": "cLUC-ATPβ (Arabidopsis)", "value": "binds"},
      {"measurement": "binding", "setting": "cLUC-ATPδ (Arabidopsis)", "value": "binds"}
    ]}
  ]
}
